The record followed here is PMC3795685.

Results are given in words; binding and its absence hold for the method and conditions named. Binding seen in cells or lysates may run through a third protein. A result given as binding can be weak or reduced; the word gives no strength. Sequences can lack the tags named with a protein.

This assay deals with T1, TAP-tagged wild-type Infected Cell Polypeptide 4 (ICP4) of HSV-1 strain KOS (herpes simplex virus type 1 (HSV-1), strain KOS) (UniProt P08392).
T1 sequence: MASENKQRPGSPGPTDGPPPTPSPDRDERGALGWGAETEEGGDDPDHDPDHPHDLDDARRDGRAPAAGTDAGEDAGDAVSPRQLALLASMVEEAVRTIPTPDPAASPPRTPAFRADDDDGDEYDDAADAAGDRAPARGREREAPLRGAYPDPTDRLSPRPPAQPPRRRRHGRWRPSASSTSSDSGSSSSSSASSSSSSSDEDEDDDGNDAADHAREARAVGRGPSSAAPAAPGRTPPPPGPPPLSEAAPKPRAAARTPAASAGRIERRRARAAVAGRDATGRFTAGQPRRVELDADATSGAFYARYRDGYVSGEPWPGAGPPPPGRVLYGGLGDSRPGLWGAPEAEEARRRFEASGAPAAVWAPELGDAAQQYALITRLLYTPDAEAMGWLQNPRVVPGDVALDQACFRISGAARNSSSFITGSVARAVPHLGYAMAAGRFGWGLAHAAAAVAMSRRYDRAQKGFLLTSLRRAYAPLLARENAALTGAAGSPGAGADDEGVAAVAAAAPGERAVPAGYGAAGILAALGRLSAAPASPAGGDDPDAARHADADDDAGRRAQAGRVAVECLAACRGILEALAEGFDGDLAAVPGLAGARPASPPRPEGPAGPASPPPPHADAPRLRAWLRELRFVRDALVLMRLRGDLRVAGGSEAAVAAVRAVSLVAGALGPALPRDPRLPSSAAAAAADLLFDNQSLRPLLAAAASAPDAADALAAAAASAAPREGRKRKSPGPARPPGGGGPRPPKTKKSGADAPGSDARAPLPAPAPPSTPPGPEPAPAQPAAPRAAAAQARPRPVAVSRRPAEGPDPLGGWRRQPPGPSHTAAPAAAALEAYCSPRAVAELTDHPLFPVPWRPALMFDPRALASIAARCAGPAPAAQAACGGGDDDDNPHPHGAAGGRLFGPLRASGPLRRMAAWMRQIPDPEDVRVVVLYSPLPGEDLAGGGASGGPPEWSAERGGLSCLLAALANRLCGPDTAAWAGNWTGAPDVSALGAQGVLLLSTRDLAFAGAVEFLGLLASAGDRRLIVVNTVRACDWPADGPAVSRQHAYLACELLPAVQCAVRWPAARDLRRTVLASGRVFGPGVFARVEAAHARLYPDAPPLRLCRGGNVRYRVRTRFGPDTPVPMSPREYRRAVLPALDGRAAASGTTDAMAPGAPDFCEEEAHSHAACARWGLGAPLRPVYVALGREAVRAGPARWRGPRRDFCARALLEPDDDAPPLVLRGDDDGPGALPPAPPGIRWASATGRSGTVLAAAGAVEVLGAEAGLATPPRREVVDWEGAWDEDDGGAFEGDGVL
Briefly: pull-down; streptavidin affinity purification of TAP-tagged ICP4 from nuclear extracts of infected Vero cells (3 or 6 hpi), independent samples; biotin eluates analysed by Western blot, in part quantified with a LI-COR Odyssey imager and normalised to ICP4; untagged virus as control. (In general: In western blotting, separated proteins are transferred to a membrane and probed.)
In the case of Brahma, the binding result was “binds”.
On to CHD3, for which the binding result is on record as “binds”.
As to CPSF2, the binding result was “binds”.
Under CPSF7 stands “binds”; under MED1, “binds”.
Under MED6 stands “binds”; under MED12, “binds”; under MED13, “binds”.
Under MED23 stands “binds”; under Med26, “no binding”; under RUVBL1, “binds”.
For the substance RUVBL2, the binding entry is “binds”.
Regarding XPD, the binding result was “binds”.
Under cyclin dependent kinase (CDK) 8 stands “binds”.
